Record: PubChem BioAssay AID1259254 (NCATS, 2017)
Aim: 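Finding genes that stop cells copying their DNA twice in one cycle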 (primary screen). Cells: human HCT116 colorectal cancer cells. Reagents: single siRNA against human genes. Timing: 3 days. Measured: 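Imaged Hoechst DNA stain sorts each cell into a cycle phase by DNA amount; per plate, G2 fraction set to 0% for non-targeting and 100% for GMNN siRNA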. Reading the numbers: G2 robust z-score and G2 cells, % of GMNN control: higher = more G2 cells, more excess DNA replication; raw share of cells in G2: higher = larger share of cells with G2 DNA content. Active means: 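An siRNA counts as active if its G2 robust z-score lies at least 5 MADs above the screen median; here such calls match roughly 38% of GMNN control or more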.
The deposit covers about 59,000 reagents; this is a part drawn at random. About 1,550 of them (2.6%) count as active. 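G2 share is only a proxy for re-replication; each gene was hit by three separate siRNAs, and active genes were retested.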 The raw values are shown without normalisation. The numbers tell different reagents against one gene apart. The record does not give: the amount of reagent.

The opening 7 entries as a preview:
Gene,reagent no.,G2 robust z-score,"G2 cells, % of GMNN control",raw share of cells in G2 (%),call
THAP8,1,4.27,33,16.8,inactive
THAP8,2,-0.927,-3.56,3.21,inactive
THAP8,3,-0.527,-0.74,5.6,inactive
ZNF487,1,-0.373,0.342,3.77,inactive
ZNF487,2,0.78,8.46,6.31,inactive
ZNF487,3,0.384,5.67,4.8,inactive
GPR22,1,0.321,5.23,6.34,inactive

The listing, from the first entry:
Gene,reagent no.,G2 robust z-score,"G2 cells, % of GMNN control",raw share of cells in G2 (%),call
THAP8,1,4.27,33,16.8,inactive
THAP8,2,-0.927,-3.56,3.21,inactive
THAP8,3,-0.527,-0.74,5.6,inactive
ZNF487,1,-0.373,0.342,3.77,inactive
ZNF487,2,0.78,8.46,6.31,inactive
ZNF487,3,0.384,5.67,4.8,inactive
GPR22,1,0.321,5.23,6.34,inactive
GPR22,2,-1.23,-5.67,3.82,inactive
GPR22,3,0.291,5.02,4.81,inactive
DNAJA3,1,-0.112,2.18,4.25,inactive
DNAJA3,2,0.806,8.64,9.83,inactive
DNAJA3,3,-0.106,2.22,4.27,inactive
FAM201A,1,-0.691,-1.9,2.92,inactive
FAM201A,2,0.243,4.67,4.53,inactive
FAM201A,3,3.77,29.5,12.1,inactive
CD34,1,-0.698,-1.94,4.27,inactive
CD34,2,-0.316,0.743,4.35,inactive
CD34,3,-1.19,-5.43,3.01,inactive
TMCC2,1,-0.767,-2.43,4.23,inactive
TMCC2,2,0.314,5.18,6.11,inactive
TMCC2,3,-0.516,-0.663,3.16,inactive
NDUFS3,1,-0.893,-3.31,4.08,inactive
NDUFS3,2,-0.718,-2.08,2.51,inactive
NDUFS3,3,0.133,3.9,7.02,inactive
DSCR10,1,-0.191,1.62,4.23,inactive
DSCR10,2,-0.344,0.549,3.26,inactive
DSCR10,3,-0.694,-1.91,2.69,inactive
CAMK2N1,1,-0.749,-2.3,4.87,inactive
CAMK2N1,2,-0.727,-2.15,4.41,inactive
CAMK2N1,3,-0.607,-1.3,3.26,inactive
MAP3K15,1,-0.552,-0.918,5.3,inactive
MAP3K15,2,-0.427,-0.0369,5.18,inactive
MAP3K15,3,-0.479,-0.402,3.55,inactive
BCKDHB,1,0.545,6.8,7.04,inactive
BCKDHB,2,-1.32,-6.34,2.82,inactive
BCKDHB,3,2.24,18.7,11,inactive
FAM234A,1,-0.501,-0.56,3.92,inactive
FAM234A,2,4.42,34.1,13.6,inactive
FAM234A,3,-0.709,-2.02,1.79,inactive
CHD3,1,-0.756,-2.35,4.12,inactive
CHD3,2,1.19,11.4,9.15,inactive
CHD3,3,1.27,11.9,8.19,inactive
PRPH2,1,1.34,12.4,8.26,inactive
PRPH2,2,-0.85,-3.01,3.94,inactive
PRPH2,3,-0.75,-2.31,3.8,inactive
PCDH12,1,2.49,20.5,15.2,inactive
PCDH12,2,0.27,4.87,6.04,inactive
PCDH12,3,-1.21,-5.52,1.69,inactive
ZNF557,1,1.21,11.5,6.84,inactive
ZNF557,2,0.883,9.18,10.1,inactive
ZNF557,3,3.09,24.7,11.4,inactive
SERPINA1,1,-0.155,1.87,5.4,inactive
SERPINA1,2,1.1,10.7,7.53,inactive
SERPINA1,3,-0.831,-2.88,2.63,inactive
PPP3R2,1,1.34,12.4,8.83,inactive
PPP3R2,2,-0.368,0.378,4.42,inactive
PPP3R2,3,-0.364,0.41,3.62,inactive
ZNF266,1,0.197,4.36,4.98,inactive
ZNF266,2,-0.486,-0.455,5.79,inactive
ZNF266,3,1.79,15.5,9.85,inactive
TPRKB,1,1.21,11.5,6.87,inactive
TPRKB,2,-0.218,1.43,4.4,inactive
TPRKB,3,0.0408,3.25,5.78,inactive
ARF5,1,-1.23,-5.67,2.79,inactive
ARF5,2,-0.578,-1.1,4.68,inactive
ARF5,3,0.767,8.36,7.11,inactive
LOC646482 (retired record),1,0.373,5.59,5.89,inactive
LOC646482 (retired record),2,-1.03,-4.27,1.64,inactive
LOC646482 (retired record),3,0.645,7.51,5.43,inactive
LDOC1,1,1.74,15.2,10.1,inactive
LDOC1,2,-0.839,-2.94,2.67,inactive
LDOC1,3,0.0598,3.39,4.48,inactive
PFDN2,1,-0.488,-0.465,4.78,inactive
PFDN2,2,2.09,17.6,11.2,inactive
PFDN2,3,-0.738,-2.23,2.55,inactive
NSUN6,1,-0.224,1.39,6.62,inactive
NSUN6,2,1.22,11.6,8.93,inactive
NSUN6,3,-0.877,-3.2,3.36,inactive
TRIP4,1,-0.829,-2.86,3.24,inactive
TRIP4,2,1.27,11.9,8.98,inactive
TRIP4,3,0.0897,3.6,6.53,inactive
POLR2B,1,2.02,17.2,9.86,inactive
POLR2B,2,3.09,24.7,13.5,inactive
POLR2B,3,2.15,18.1,11.6,inactive
CALHM2,1,-1.09,-4.67,1.78,inactive
CALHM2,2,3.11,24.8,13.3,inactive
CALHM2,3,0.875,9.13,8,inactive
